# Data published in publication PMC5353548.
# Protein sequences, listed by entry. Tags and fused reporters are not part of them.
# UniProt O08530: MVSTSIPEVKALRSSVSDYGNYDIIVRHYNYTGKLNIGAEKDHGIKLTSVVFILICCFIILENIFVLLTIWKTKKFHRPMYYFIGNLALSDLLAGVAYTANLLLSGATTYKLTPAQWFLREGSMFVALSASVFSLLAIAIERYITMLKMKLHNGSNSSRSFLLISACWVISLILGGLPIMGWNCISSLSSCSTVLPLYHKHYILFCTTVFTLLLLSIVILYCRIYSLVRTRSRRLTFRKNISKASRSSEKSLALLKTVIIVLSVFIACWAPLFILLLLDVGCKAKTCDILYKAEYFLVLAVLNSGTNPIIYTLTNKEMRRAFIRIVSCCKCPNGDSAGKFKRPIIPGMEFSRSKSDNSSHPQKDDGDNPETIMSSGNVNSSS
# UniProt P32121: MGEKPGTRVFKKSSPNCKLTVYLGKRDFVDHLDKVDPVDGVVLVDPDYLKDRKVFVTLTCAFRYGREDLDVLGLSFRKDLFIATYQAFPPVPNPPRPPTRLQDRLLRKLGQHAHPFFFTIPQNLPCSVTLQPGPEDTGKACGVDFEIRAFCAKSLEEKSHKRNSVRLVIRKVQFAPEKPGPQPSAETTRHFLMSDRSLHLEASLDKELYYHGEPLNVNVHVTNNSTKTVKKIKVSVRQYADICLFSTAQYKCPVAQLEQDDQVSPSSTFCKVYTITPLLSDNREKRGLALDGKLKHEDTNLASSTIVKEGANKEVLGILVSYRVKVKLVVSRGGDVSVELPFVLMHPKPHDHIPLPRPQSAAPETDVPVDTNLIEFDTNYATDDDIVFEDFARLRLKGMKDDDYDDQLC
# These are yes or no findings as the source states them, for the method shown. Binding seen in cells or lysates may run through a third protein. Some entries that bind do so weakly or less than the wild type.
# Biological target: S1P1 receptor-FLAG (UniProt O08530)
# Assay: co-IP; SH-SY5Y cells, serum-starved 18 hr with or without 1 μM α-Syn(A53T), 100 nM S1P for the indicated times, cross-linked with 2 mM DSP for 20 min, lysed in 0.2% DDM buffer; anti-FLAG beads; blot with anti-β-arrestin 2
substance,measurement,value
β-arrestin 2-YFP (from UniProt P32121 1-409),binding,binds
